Data taken from patent US20260193623.
For at least one entry, the source does not settle the construct or the ends of the probe. For some of these results: Protein sequences can lack the tags named with them.

Columns and labels:
Assay in all cases: activity assay
MG151-89 = tested on: T1, MG151-89; settings: primer extension gel; protein translated in vitro; protein details: Strep, RT-RNase H trim; label: 5'-FAM primer; DNA:RNA hybrid
T1 sequence (limits assumed): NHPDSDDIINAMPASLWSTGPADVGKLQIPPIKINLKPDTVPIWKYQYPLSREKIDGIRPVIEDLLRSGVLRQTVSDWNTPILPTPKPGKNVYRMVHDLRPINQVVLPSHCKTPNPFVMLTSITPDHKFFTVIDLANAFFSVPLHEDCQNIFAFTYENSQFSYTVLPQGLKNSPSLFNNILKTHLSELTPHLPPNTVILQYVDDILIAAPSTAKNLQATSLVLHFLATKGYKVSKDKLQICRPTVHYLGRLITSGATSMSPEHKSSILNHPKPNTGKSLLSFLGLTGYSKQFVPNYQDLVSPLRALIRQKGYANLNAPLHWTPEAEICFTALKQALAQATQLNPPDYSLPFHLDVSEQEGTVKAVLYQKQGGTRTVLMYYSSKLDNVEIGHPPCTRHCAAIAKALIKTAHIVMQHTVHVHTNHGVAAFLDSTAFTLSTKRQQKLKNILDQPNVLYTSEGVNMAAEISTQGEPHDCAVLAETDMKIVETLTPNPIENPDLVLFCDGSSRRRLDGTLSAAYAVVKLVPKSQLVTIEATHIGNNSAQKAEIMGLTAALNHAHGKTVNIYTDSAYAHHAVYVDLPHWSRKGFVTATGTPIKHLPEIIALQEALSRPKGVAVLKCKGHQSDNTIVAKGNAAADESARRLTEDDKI

[1] = tested on: MG140-8c5 (C-terminal endonuclease trim); settings: primer extension; 10 mM MgCl2, 0.2 M NaCl; purified recombinant protein; label: 5'-FAM primer; DNA:RNA hybrid
MG173-3 = tested on: T2, MG173-3; settings: primer extension on general RNA; protein translated in vitro; protein details: N-terminal Strep; label: 5'-FAM primer; DNA:RNA hybrid
T2 sequence (limits assumed): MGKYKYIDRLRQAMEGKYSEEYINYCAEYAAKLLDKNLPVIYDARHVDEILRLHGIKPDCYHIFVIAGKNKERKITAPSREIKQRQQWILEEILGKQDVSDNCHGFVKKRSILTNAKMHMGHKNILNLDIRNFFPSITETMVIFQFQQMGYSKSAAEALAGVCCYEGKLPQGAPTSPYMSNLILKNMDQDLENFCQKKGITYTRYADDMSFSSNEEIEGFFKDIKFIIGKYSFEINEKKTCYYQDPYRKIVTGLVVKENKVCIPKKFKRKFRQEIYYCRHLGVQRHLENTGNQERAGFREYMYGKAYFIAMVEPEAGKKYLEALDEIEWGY

MG153-57 = tested on: T3, MG153-57; settings: primer extension gel; 3 mM MgCl2, 37 C; protein translated in vitro; protein details: N-terminal Strep; label: 5'-FAM primer; DNA:RNA hybrid
T3 sequence (limits assumed): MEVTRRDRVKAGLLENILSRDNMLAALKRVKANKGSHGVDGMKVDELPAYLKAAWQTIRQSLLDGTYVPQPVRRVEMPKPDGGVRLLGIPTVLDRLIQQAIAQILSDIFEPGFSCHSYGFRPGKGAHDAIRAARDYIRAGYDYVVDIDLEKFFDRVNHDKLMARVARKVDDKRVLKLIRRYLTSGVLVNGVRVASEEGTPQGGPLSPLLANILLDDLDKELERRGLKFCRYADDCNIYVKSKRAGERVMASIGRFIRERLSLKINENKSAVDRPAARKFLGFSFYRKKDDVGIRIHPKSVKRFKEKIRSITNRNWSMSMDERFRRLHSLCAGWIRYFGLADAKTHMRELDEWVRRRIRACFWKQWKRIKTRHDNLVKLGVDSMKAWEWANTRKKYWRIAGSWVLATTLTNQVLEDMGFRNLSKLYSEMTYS

MG167-4 = tested on: T4, MG167-4; settings: primer extension gel; protein translated in vitro; protein details: N-terminal Strep; label: 5'-FAM primer; DNA:RNA hybrid
T4 sequence (limits assumed): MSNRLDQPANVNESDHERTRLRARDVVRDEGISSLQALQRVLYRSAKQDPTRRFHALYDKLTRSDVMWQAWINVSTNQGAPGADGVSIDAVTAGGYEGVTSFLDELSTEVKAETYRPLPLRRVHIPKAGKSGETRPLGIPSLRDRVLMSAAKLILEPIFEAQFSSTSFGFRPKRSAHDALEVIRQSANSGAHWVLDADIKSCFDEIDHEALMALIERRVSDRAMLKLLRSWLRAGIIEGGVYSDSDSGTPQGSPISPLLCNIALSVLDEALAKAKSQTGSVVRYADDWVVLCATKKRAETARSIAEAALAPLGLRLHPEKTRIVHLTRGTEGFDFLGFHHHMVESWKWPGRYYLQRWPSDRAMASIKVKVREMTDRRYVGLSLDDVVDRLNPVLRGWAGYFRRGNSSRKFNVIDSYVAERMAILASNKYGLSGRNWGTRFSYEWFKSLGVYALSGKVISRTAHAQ

MG153-13 = tested on: T5, MG153-13; settings: primer extension gel; 3 mM MgCl2, 37 C; protein translated in vitro; protein details: N-terminal Strep; label: 5'-FAM primer; DNA:RNA hybrid
T5 sequence (limits assumed): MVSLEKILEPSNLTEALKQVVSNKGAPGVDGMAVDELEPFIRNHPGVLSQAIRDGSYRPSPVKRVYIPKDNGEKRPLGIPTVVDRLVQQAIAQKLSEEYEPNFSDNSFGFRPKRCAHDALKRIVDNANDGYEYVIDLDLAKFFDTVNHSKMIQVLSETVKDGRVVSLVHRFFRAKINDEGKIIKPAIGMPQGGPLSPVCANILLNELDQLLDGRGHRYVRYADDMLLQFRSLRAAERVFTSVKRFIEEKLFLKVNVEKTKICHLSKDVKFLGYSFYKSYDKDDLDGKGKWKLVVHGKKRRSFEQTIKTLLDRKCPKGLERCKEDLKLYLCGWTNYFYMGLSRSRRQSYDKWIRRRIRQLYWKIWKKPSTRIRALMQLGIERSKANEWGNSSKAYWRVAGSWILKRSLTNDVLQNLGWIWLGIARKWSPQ

MG157-5 = tested on: T6, MG157-5; settings: primer extension on general RNA; protein translated in vitro; protein details: N-terminal Strep; label: 5'-FAM primer; DNA:RNA hybrid
T6 sequence: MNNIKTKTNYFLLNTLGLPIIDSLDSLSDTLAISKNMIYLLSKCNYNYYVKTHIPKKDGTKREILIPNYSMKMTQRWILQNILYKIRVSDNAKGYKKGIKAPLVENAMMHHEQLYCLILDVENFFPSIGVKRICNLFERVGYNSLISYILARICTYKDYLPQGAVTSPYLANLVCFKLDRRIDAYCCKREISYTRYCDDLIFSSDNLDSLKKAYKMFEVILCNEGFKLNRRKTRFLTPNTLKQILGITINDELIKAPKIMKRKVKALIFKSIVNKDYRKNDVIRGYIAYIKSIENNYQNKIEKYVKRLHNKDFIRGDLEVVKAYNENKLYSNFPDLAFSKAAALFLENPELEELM

Measured: activity on this sequence

GGCAAACCGCCTCTCCCCGCGCGTTGGCCGATTCATTAATGCAGCTGGCACGACAGGTTTCCCGACTGGAAAGGAGACCCGGGCAGTGAGCGCAACGGGTCTCCAATTTAAGCCAGCCCCGACACCCGCCAACACCCGCTGACGCGCCCTGACGGGCTTGTCTGCTCCCGGCATCCGCTTACAGACAAGCTGTGACCGTCTC / GAGACGGTCACAGCTTGTCTG [202-nt RNA template annealed to DNA primer]
active: all assays above
